Assay results from publication PMC7979882.

The chains behind the UniProt entries cited, without tags or fusion partners.
UniProt P15924: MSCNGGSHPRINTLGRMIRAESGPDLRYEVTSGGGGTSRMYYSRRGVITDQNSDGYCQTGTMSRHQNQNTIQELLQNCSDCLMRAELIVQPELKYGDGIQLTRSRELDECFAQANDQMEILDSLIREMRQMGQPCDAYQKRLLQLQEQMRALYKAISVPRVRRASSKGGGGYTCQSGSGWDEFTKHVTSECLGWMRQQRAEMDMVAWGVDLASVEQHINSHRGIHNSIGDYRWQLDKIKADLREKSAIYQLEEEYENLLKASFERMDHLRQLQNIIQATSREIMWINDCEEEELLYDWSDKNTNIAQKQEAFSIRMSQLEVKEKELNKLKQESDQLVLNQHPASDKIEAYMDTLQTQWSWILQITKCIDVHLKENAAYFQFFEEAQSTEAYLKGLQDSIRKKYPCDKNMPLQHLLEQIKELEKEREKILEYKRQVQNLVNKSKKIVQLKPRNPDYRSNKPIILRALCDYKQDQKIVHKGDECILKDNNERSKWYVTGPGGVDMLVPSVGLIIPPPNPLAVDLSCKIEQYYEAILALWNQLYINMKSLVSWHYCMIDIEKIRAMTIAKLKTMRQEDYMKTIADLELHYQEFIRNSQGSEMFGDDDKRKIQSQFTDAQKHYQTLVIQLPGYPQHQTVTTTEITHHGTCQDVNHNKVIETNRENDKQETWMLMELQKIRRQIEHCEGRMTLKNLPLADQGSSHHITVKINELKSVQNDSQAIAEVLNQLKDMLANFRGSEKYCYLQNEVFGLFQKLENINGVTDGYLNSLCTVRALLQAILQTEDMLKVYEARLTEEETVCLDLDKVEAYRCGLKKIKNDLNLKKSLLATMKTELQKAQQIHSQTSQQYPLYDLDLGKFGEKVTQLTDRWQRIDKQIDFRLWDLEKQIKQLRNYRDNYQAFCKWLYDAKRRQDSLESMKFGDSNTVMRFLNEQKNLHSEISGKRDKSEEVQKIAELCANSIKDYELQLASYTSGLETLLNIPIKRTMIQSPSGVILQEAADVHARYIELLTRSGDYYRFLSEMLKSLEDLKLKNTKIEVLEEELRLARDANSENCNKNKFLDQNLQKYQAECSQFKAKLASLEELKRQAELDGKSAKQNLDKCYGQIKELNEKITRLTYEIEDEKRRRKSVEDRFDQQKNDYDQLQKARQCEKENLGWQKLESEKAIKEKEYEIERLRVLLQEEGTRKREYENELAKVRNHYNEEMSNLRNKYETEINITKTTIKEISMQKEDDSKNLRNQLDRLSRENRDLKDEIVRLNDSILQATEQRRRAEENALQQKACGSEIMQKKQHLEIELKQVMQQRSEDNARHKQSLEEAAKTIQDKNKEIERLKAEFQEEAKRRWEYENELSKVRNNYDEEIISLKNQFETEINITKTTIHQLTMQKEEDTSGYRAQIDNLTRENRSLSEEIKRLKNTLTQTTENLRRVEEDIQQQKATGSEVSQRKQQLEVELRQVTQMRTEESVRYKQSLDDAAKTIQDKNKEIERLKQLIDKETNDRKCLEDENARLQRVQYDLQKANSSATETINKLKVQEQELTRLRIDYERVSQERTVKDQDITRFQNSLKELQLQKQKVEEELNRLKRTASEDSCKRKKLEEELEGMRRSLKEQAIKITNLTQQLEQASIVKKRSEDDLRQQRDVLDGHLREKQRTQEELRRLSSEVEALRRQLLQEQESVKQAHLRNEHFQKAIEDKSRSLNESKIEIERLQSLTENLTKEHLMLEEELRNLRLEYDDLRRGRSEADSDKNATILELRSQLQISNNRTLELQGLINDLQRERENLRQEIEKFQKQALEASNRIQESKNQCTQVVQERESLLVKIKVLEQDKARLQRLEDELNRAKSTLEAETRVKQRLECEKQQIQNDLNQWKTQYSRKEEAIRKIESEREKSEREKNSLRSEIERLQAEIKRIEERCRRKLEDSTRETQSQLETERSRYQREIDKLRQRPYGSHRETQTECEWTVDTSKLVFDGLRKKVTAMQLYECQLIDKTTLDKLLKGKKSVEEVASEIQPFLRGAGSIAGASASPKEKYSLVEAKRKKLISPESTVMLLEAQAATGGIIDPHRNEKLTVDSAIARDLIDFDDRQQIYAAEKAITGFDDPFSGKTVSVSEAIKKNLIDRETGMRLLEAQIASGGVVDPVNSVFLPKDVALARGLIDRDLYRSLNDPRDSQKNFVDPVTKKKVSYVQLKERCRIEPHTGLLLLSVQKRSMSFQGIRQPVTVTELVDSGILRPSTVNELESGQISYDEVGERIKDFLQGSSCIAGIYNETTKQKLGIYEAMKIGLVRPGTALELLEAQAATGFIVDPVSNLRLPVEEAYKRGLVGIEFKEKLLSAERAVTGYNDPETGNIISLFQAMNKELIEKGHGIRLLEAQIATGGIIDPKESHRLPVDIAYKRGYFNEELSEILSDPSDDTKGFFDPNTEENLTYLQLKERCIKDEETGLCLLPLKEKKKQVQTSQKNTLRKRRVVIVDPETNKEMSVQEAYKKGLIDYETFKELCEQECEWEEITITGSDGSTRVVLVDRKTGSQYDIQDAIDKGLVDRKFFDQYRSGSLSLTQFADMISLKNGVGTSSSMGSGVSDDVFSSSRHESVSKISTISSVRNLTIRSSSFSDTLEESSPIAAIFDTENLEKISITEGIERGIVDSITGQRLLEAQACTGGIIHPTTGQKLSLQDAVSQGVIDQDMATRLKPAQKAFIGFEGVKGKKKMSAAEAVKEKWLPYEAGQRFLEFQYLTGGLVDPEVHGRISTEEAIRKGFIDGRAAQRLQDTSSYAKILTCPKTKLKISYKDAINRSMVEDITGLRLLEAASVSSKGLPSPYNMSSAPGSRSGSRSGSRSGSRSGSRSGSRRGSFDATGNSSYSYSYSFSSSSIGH
UniProt P60842: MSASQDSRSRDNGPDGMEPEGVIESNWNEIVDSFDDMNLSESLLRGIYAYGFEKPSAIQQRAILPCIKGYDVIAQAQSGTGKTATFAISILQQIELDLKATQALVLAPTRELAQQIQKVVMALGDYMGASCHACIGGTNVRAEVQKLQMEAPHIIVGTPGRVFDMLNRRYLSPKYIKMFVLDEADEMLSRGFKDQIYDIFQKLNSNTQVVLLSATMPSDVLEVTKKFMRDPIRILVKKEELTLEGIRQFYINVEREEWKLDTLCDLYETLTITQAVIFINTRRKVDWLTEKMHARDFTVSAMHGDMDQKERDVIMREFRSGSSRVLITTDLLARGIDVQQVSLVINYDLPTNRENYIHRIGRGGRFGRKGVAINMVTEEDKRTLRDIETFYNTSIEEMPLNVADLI
UniProt P09874: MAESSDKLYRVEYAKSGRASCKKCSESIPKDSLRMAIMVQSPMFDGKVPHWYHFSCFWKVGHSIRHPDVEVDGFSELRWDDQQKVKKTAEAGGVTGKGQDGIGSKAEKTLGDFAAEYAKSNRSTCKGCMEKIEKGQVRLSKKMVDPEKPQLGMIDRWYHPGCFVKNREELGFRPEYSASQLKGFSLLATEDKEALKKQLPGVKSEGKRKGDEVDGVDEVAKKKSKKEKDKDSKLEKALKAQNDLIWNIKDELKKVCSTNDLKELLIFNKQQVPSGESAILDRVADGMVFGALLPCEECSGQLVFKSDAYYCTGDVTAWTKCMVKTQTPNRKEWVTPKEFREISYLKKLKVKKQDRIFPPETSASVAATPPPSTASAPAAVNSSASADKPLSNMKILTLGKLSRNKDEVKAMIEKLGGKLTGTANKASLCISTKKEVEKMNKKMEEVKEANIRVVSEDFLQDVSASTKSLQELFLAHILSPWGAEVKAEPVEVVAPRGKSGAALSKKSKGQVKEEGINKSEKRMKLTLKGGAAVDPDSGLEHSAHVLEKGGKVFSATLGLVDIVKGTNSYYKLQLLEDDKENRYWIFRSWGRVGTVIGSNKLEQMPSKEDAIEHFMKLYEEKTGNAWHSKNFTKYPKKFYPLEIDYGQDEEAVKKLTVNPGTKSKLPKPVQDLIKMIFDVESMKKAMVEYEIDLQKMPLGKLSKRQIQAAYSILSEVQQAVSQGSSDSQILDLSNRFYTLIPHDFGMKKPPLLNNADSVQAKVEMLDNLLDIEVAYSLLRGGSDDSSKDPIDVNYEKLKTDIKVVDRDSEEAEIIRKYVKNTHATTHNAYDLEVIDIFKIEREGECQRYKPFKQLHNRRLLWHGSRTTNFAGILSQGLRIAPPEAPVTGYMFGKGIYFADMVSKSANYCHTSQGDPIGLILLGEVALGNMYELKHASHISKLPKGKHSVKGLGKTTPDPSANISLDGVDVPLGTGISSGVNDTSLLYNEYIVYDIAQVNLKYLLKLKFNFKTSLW
UniProt P14618: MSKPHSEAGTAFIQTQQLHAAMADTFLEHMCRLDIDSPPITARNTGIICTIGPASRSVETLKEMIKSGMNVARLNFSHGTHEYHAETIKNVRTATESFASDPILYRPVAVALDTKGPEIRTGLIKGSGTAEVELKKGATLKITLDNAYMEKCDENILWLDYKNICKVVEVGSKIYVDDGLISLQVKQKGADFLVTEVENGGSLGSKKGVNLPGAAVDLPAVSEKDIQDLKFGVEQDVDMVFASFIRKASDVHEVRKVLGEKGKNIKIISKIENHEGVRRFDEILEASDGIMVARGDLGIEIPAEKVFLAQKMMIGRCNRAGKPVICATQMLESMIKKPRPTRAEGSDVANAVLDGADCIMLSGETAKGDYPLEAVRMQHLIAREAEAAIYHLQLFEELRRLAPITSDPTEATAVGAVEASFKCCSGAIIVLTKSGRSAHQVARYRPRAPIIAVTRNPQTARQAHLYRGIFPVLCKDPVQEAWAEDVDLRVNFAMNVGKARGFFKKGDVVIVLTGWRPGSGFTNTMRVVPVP
UniProt P07437: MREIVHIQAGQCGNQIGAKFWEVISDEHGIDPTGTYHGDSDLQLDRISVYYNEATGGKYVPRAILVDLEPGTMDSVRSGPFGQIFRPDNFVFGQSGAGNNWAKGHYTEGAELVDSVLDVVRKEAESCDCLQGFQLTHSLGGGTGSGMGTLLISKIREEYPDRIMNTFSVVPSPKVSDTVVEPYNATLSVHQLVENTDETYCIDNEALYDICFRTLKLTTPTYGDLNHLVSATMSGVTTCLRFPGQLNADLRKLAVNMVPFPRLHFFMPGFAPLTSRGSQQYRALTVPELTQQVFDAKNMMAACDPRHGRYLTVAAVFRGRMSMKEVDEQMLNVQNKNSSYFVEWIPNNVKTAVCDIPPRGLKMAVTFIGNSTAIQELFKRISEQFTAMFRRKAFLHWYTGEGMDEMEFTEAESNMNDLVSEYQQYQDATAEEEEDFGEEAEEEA
UniProt P08670: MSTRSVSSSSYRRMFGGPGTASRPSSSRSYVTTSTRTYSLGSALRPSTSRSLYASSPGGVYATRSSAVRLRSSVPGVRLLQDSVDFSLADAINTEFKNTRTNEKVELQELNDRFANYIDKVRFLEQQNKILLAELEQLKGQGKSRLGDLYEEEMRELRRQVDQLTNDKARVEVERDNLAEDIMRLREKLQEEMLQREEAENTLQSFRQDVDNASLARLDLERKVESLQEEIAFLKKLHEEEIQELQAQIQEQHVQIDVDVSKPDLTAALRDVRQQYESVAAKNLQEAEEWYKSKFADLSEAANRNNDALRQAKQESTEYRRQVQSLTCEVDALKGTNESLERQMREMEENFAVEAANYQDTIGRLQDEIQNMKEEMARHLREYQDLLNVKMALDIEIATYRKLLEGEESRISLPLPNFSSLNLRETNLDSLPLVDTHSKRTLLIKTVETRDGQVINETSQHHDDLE
UniProt Q13426: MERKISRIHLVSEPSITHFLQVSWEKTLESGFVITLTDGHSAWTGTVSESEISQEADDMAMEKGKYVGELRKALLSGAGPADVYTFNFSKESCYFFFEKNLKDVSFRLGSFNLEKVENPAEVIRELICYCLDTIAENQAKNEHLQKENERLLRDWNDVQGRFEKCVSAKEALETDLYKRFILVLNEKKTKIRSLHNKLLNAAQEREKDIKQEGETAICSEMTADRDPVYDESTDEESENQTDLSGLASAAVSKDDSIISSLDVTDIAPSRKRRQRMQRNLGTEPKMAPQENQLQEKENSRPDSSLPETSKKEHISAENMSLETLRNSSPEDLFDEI

Target: T1, human period circadian regulator 3 (hPER3) (human) (UniProt P56645)
T1 sequence: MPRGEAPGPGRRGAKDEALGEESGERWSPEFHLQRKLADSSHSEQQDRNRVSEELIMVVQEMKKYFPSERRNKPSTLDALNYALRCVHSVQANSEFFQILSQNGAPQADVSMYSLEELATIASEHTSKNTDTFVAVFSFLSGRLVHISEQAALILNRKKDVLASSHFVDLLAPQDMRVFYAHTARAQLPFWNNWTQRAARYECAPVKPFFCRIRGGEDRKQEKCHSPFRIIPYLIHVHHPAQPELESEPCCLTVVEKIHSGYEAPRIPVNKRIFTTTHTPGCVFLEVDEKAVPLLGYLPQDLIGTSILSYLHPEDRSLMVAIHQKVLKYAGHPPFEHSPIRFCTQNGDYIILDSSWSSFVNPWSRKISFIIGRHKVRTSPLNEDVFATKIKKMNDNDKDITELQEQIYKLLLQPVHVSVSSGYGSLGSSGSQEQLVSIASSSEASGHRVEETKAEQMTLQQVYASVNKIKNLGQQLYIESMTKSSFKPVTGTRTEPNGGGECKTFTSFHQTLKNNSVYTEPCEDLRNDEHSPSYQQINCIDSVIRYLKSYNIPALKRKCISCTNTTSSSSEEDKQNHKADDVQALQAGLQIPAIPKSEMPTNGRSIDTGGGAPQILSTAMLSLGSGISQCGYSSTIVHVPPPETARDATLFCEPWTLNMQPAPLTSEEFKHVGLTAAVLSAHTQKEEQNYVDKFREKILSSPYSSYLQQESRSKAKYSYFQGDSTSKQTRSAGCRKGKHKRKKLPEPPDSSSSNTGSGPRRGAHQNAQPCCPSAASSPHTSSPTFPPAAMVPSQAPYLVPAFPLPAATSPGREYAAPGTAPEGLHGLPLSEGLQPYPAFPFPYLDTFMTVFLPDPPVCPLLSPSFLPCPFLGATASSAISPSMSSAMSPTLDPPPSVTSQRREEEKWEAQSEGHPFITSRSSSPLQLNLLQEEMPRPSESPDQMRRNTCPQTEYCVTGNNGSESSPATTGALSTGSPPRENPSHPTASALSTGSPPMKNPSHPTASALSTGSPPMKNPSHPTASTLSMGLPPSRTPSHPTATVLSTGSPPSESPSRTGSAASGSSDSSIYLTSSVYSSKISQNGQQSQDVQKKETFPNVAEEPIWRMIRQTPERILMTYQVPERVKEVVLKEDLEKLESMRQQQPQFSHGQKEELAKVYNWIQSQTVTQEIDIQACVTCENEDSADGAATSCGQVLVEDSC
Assay: affinity purification with mass spectrometry; Co-IP performed as for the co-IP, trypsin digestion, Q Exactive mass spectrometer, Mascot; how hPER3 was precipitated is not told

Molecule: Clathrin heavy chain (from UniProt Q00610 1-1675)
binding: binds

Molecule: Cytoplasmic dynein 1 heavy chain 1 (from UniProt Q14204 1-4646)
binding: binds

Molecule: Desmoplakin (from UniProt P15924 1-2871)
binding: binds

Molecule: Eukaryotic initiation factor 4A-I (from UniProt P60842 1-406)
binding: binds

Molecule: Heat shock protein HSP 90β (from UniProt P08238 1-724)
binding: binds

Molecule: Myosin-9 (from UniProt P35579 1-1960)
binding: binds

Molecule: Poly [ADP-ribose] polymerase 1 (from UniProt P09874 1-1014)
binding: binds

Molecule: Pyruvate kinase (from UniProt P14618 1-531)
binding: binds

Molecule: Tubulin β-class I (from UniProt P07437 1-444)
binding: binds

Molecule: hHSP90AA1 (hit of the hPER3 Co-IP + MS) (from UniProt P07900 1-732)
binding: binds

Molecule: protein kinase, DNA-activated, catalytic subunit (from UniProt P78527 1-4128)
binding: binds

B1: MARCKS (protein, UniProt P29966 1-332)
chain: MGAQFSKTAAKGEAAAERPGEAAVASSPSKANGQENGHVKVNGDASPAAAESGAKEELQANGSAPAADKEEPAAAGSGAASPSAAEKGEPAAAAAPEAGASPVEKEAPAEGEAAEPGSPTAAEGEAASAASSTSSPKAEDGATPSPSNETPKKKKKRFSFKKSFKLSGFSFKKNKKEAGEGGEAEAPAAEGGKDEAAGGAAAAAAEAGAASGEQAAAPGEEAAAGEEGAAGGDPQEAKPQEAAVAPEKPPASDETKAAEEPSKVEEKKAEEAGASAAACEAPSAAGPGAPPEQEAAPAEEPAAAAASSACAAPSQEAQPECSPEAPPAEAAE
binding: binds

The remaining lines, values ahead:

binding: binds
Molecule: ATP synthase, H + transporting mitochondrial F1 complex, β-subunit (from UniProt P06576 48-529)

binding: binds
Molecule: Lamin-B1 (from UniProt P20700 1-586)

binding: binds
Molecule: Myosin-10 (from UniProt P35580 1-1976)

binding: binds
Molecule: Vimentin (from UniProt P08670 1-466)

binding: binds
Molecule: XRCC4 (from UniProt Q13426 1-336)

binding: binds
B2: IL22 (protein, UniProt Q9GZX6 34-179)
chain: APISSHCRLDKSNFQQPYITNRTFMLAKEASLADNNTDVRLIGEKLFHGVSMSERCYLMKQVLNFTLEEVLFPQSDRFQPYMQEVVPFLARLSNRLSTCHIEGDDLHIQRNVQKLKDTVKKLGESGEIKAIGELDLLFMSLRNACI

binding: binds
B3: Heterogeneous nuclear ribonucleoprotein M (protein, UniProt P52272 1-730)
chain: MAAGVEAAAEVAATEIKMEEESGAPGVPSGNGAPGPKGEGERPAQNEKRKEKNIKRGGNRFEPYANPTKRYRAFITNIPFDVKWQSLKDLVKEKVGEVTYVELLMDAEGKSRGCAVVEFKMEESMKKAAEVLNKHSLSGRPLKVKEDPDGEHARRAMQKVMATTGGMGMGPGGPGMITIPPSILNNPNIPNEIIHALQAGRLGSTVFVANLDYKVGWKKLKEVFSMAGVVVRADILEDKDGKSRGIGTVTFEQSIEAVQAISMFNGQLLFDRPMHVKMDERALPKGDFFPPERPQQLPHGLGGIGMGLGPGGQPIDANHLNKGIGMGNIGPAGMGMEGIGFGINKMGGMEGPFGGGMENMGRFGSGMNMGRINEILSNALKRGEIIAKQGGGGGGGSVPGIERMGPGIDRLGGAGMERMGAGLGHGMDRVGSEIERMGLVMDRMGSVERMGSGIERMGPLGLDHMASSIERMGQTMERIGSGVERMGAGMGFGLERMAAPIDRVGQTIERMGSGVERMGPAIERMGLSMERMVPAGMGAGLERMGPVMDRMATGLERMGANNLERMGLERMGANSLERMGLERMGANSLERMGPAMGPALGAGIERMGLAMGGGGGASFDRAIEMERGNFGGSFAGSFGGAGGHAPGVARKACQIFVRNLPFDFTWKMLKDKFNECGHVLYADIKMENGKSKGCGVVKFESPEVAERACRMMNGMKLSGREIDVRIDRNA

No constants are given. Whether binding was seen depends on the method and setting. Binding seen in cells or lysates may run through a third protein. Here binding means that the protein was enriched with, or labelled near, the bait; the list need not be complete. One block for each molecule: values may come before it.
